# Primary screen of a compound library

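Viability assay of Plasmodium falciparum sporozoites; the read-out is not stated. The concentration is filed as 10 mM, unlikely as a test dose, so the dose is not known. Higher reads as lower viability (inferred: compounds with an IC50 in retests scored well above the rest). Strong results were mostly tested again. Size under these conditions: about 34,000 compounds, about 280 of them at 50% or above in at least one test.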

Values are the deposited “Percent Effect”, in %.
The controls that fix the scale are not given in the record; negative values are as filed.
This is an unselected part of the compounds tested.
Two or more numbers in one place are separate tests of the same structure; such repeats can differ widely.

O=C(NCCNc1ccc(C(F)(F)F)cn1)c1ccc(Br)cc1 gave -6.224%.
COc1cccc(OCC2CCCN(C(=O)c3cnc(C)nc3O)C2)c1 (centres unmarked) gave -6.706%.
Cc1ncc(CN2CCOC(c3ccc(-c4ccccc4F)cn3)C2)s1 (centres unmarked) gave 25.87%.
O=C(O)C(F)(F)F.O=C(O)C(F)(F)F.O=C1CC(c2ccncc2)C2(CCN(Cc3ccc(F)cc3)CC2)N1 (centres unmarked) gave -24.57%.
O=C(c1ccco1)N1CCCC(c2cc(C(F)F)n3ncnc3n2)C1 (centres unmarked) gave -13.63%.
CCc1ncc2c(n1)CN(Cc1nnc(C)o1)CC2 gave -3.188%.
CC(Nc1cccc(CN2CCOC2=O)c1)C(=O)N1CCNC1=O (centres unmarked) gave 5.153%.
COCC(=O)N1CCC2(C1)c1ccccc1S(=O)(=O)N2C (centres unmarked) gave 8.319%.
COc1cccc(CC(=O)N2CCCC(c3nncn3C)C2)c1 (centres unmarked) gave -4.894%.
CC(=O)NCC(=O)N1CCN(Cc2cccnc2)c2ncccc2C1 gave 4.427%.
Cc1c[nH]nc1C1CCN(C(=O)CC2CCCC2)C1 (centres unmarked) gave 10.74%.
CCn1nc(C)c(CN(CCCN(C)C)Cc2ccccn2)c1C gave 8.784%.
CCc1nc2n(n1)CC(NCc1nnc(C(C)C)o1)CC2 (centres unmarked) gave 13.14%.
COc1ccc(C[C@H]2CN(Cc3ccoc3)CC[C@@H]2OC)cc1.O=C(O)C(F)(F)F gave 8.134%.
c1cc(CNCC2CNc3ccnn3C2)cc(OC2CCCC2)n1 (centres unmarked) gave 10.02%.
Cc1nnc(CN(C)CCCOc2ccc(Cl)cc2)o1 gave -41.05%.
O=C(NCC(=O)N1CCCC(n2cncn2)C1)OCc1ccccc1 (centres unmarked) gave -4.894%.
Cc1ccc(C(=O)N(CC(=O)O)CC(C)C)cc1F gave -14.74%.
O=C(O)C1CCCN(C(=O)CCn2ccc3c(Br)cccc32)C1 (centres unmarked) gave -2.089%.
Cn1cc(C[C@H]2[C@H](O)CCN2CC2CCOCC2)cn1.O=C(O)C(F)(F)F gave -12.97%.
O=C(O)C(F)(F)F.[H][C@@]12CCCO[C@]1([H])[C@H](NC(=O)c1cscn1)CN2CC1CC1 gave 10.62%.
O=C(O)C(F)(F)F.[H][C@]12CCN(C(=O)CC3CC3)[C@@]1([H])CC[C@H](COCc1cccc(C)n1)O2 gave -3.576%.
COc1ccc(-c2n[nH]c(C)c2CC(=O)NCC2CCOCC2)cc1 gave -3.388%.
CC(C)c1nc(C(=O)N2CCCC(n3cncn3)C2)c[nH]1 (centres unmarked) gave -3.341%.
CCS(=O)(=O)N1CCN(C(C)c2ncc(-c3ccccc3)o2)CC1 (centres unmarked) gave 0.7162%.
[H][C@]12CC[C@]([H])(CN(Cc3cccc(-c4cccc(OC)c4)c3)C1)N(C)C2=O gave -19.81% and 5.551%.
CC(C)Oc1ncnc2c1CCN(Cc1cccs1)CC2 gave -14.18%.
Cc1nc(Cc2ccccc2)nc2sc(C(=O)O)c(C)c12 gave -2.473%.
Cc1ccc(CNC(=O)CCNS(C)(=O)=O)cc1 gave 11.04%.
CN1CCC/C1=N\S(=O)(=O)c1ccc(NC(=O)Cc2cccs2)cc1 gave -0.6752%.
CC(=O)c1cnc(NCCc2csc(-c3cnccn3)n2)nc1C gave -2.899%.
CC(C)Nc1ncc(-c2ccncc2)c([C@@H]2CCCO2)n1 gave 2.31%.
CCc1ccc(CC)c(NCC(=O)N2CCCC(NC(C)=O)C2)c1 (centres unmarked) gave -17.2%.
CCN1CCOCC2(CCCN(C(=O)c3conc3C)C2)C1.O=C(O)C(F)(F)F (centres unmarked) gave -4.874%.
Cc1cc(C)n(C2CCCN(C(=O)Cc3cn4ccsc4n3)C2)n1 (centres unmarked) gave 12.21%.
COCC(=O)N1Cc2cn(C)nc2C(COc2cccnc2)C1 (centres unmarked) gave 13.97%.
CCc1nc(CN(C)CC2CCN(CC(C)O)CC2)no1 (centres unmarked) gave -1.765%.
CCN1CC(COc2ccc(OC)cc2)Oc2ccncc2S1(=O)=O (centres unmarked) gave 10.05%.
[H][C@@]12CN(Cc3cccc(OC4CCCC4)c3)C[C@]1(C(=O)O)CNC2=O gave -25.92%.
CC(C(=O)N1CCCC1)N1CCC(c2nccn2CC2CCC2)CC1 (centres unmarked) gave 9.459%.
CN1CCOC(CNCCOc2ccc(C#N)cc2)C1 (centres unmarked) gave -5.965%.
Cc1cccc(CNC2CCCc3c2cnn3C)c1.Cl (centres unmarked) gave -1.28%.

Once more, the final 4:

| structure | percent effect |
|---|---|
| `[H][C@@]12CN(Cc3cccc(OC4CCCC4)c3)C[C@]1(C(=O)O)CNC2=O` | -25.92 |
| `CC(C(=O)N1CCCC1)N1CCC(c2nccn2CC2CCC2)CC1` (centres unmarked) | 9.459 |
| `CN1CCOC(CNCCOc2ccc(C#N)cc2)C1` (centres unmarked) | -5.965 |
| `Cc1cccc(CNC2CCCc3c2cnn3C)c1.Cl` (centres unmarked) | -1.28 |

Data taken from ChEMBL document CHEMBL3988442, “University of Dundee, Small-Polar-MMV Screening Library” (2021).